From the supplement of paper PMC5407854, “Inhibitor of ppGalNAc-T3-mediated O-glycosylation blocks cancer cell invasiveness and lowers FGF23 levels” (eLife, 2017)
± gives the standard deviation of the averaged measurements. The full ranking holds about 1,700 compounds; the median of “T2 sensor activation Q score (MG/GFP ratio z-score vs DMSO controls)” is about 0.3, and the highest 2% start at about 1.9. This is one part of the list.

System: ppGalNAc-T2 sensor
Experiment: T2 sensor activation Q score (MG/GFP ratio z-score vs DMSO controls) (SD units); higher = more sensor activation (inhibition of ppGalNAc-T2 glycosylation)
Settings: HEK293 sensor cells; 10 µM; 6 h
Method: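 Cells were treated with compound at 10 uM for 6 h, then MG/GFP ratio was read by flow cytometry (10,000 cells per well, duplicate wells). Q = (R - R_neg)/SD_neg relative to DMSO vehicle controls; the signal rises when the glycosyltransferase is inhibited.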

SMILES	T2 sensor activation Q score
O=C(c1ccc(O)cc1)c1ccc(C(=O)c2ccc(O)cc2)cc1	-0.25
c1ccc(-c2nn(-c3ccccc3)[n+](-c3ccccc3)n2)cc1	0.4
COc1cc(Cl)c(CC(=O)c2c[nH]c3ccccc23)cc1OC	1
Nc1ccc(C(=O)Nc2cccc(N)c2)cc1	-0.5
O=C(COc1ccc([N+](=O)[O-])cc1Cl)N1CCOCC1	-0.05
C#CC(c1ccccc1)(c1ccccc1)n1ccnc1	1.05
Nc1ncn([C@@H]2O[C@H](CO)[C@@H](O)[C@H]2O)c(=O)n1	-0.15
Clc1ccc(-c2nc(-c3cc4cc(Cl)ccc4o3)cs2)cc1	0.65
CC1CC(C)(C)C2=NCCN21 (stereo unspecified)	1.3
O=C1CCC(c2ccccc2)(c2ccccc2)CC1	-0.25
CC1=NN(c2ccccc2)C(=O)C1N=Nc1ccc(S(N)(=O)=O)cc1 (stereo unspecified)	0.6
O=c1cc(N=Nc2ccc(Cl)cc2)[nH]c(=O)[nH]1	1.6
CCCCC[C@H](O)/C=C/[C@@H]1[C@@H](C/C=C\CCCC(=O)O)[C@@H](O)C[C@H]1O	0.6
COc1cccc(NC(=S)Nc2ccc(O)cc2)c1	-1.2
Cc1ccn2c(C(C)O)nnc2c1 (stereo unspecified)	0.8
O=C(O)CCC(=O)c1ccc2ccc3cccc4ccc1c2c34	1.35
Nc1ccc(C(=O)Nc2ccc(Nc3ccncc3)cc2)cc1	1.85
c1ccc(-n2ncc3cccnc32)cc1	-0.25
O=[N+]([O-])c1c(N2CCN(CCO)CC2)nc2ccccn12	0.7
CCC(C)NC(=O)CC(C)C (stereo unspecified)	1.8
COc1ccc(-c2cc3ccccc3[nH]2)cc1	0.9
O=c1[nH]c(=S)c2ncn(-c3ccccc3)c2[nH]1	-1.3
CCCN(CCC)CC(=O)N1CC(=O)Nc2ccccc21	-1.75
Cc1ccnc(NC(c2ccccc2)c2ccc3cccnc3c2O)c1 (stereo unspecified)	-1.9
Nc1ccnn1-c1ccccc1	-0.15

Taken from above:
O=c1[nH]c(=S)c2ncn(-c3ccccc3)c2[nH]1 | T2 sensor activation Q score: -1.3
O=C(COc1ccc([N+](=O)[O-])cc1Cl)N1CCOCC1 | T2 sensor activation Q score: -0.05
CCC(C)NC(=O)CC(C)C (stereo unspecified) | T2 sensor activation Q score: 1.8

The list goes on.

SMILES	T2 sensor activation Q score
C[C@@H]1O[C@@H](Oc2c(-c3cc(O)c(O)c(O)c3)oc3cc(O)cc(O)c3c2=O)[C@H](O)[C@H](O)[C@H]1O	1.8
O=C1C(=Nc2cccc(Cl)c2)CC(c2ccc(Cl)cc2)N1c1cccc(Cl)c1 (stereo unspecified)	-0.2
Cc1ccc(C(=O)Nc2ccc(CN3CCN(C)CC3)c(C(F)(F)F)c2)cc1C#Cc1cnc2cccnn12	0.5
N#CCc1cnc2ccccc2n1	-0.35
O=C(Nc1cccnc1)c1cccc([N+](=O)[O-])c1	-0.2
O=C(O)/C=C\C(=O)Nc1ccc(-c2ccccc2)cc1	0.1
O=C(c1ccc(Cl)nc1)c1cccs1	0.8
c1ccc2[nH]c(-c3ccncc3)nc2c1	-1.1
O=c1ccc(Cl)n[nH]1	1.45
Cc1cc(C)n(C(N)=NC(=O)c2ccc([N+](=O)[O-])cc2)n1	0.9
Cc1ccc(-c2nc(-c3nccc4ccccc34)oc2-c2ccccc2)cc1	0.35
S=c1nc[nH]c2c1ncn2C1CCCC1	1.4
Cc1ccc([N+](=O)[O-])cc1NC(=O)Nc1ccc(S(N)(=O)=O)cc1	1.2
COc1cccc(OCC(O)CN2CCN(c3ccccc3)CC2)c1 (stereo unspecified)	0.55
CCOC(=O)Cc1cc(=O)[nH]n(-c2ccccc2)c1=O	0.75
O=C(Nc1nc2ccccc2s1)Nc1ccc([N+](=O)[O-])cc1Cl	0.35
Cc1ccc(C#CC(C)(O)C(C)(C)C)cn1 (stereo unspecified)	-0.05
COc1cc2nccc(Oc3ccc(NC(=O)C4(C(=O)Nc5ccc(F)cc5)CC4)cc3)c2cc1OC	0.85
COc1cc2c(c(OC)c1O)C(=O)CO2	0.55
COc1ccc(C2OC3=C(Nc4cc(C)c(C)cc4N3)C2=O)cc1 (stereo unspecified)	-0.5
CO[C@@]12[C@H](COC(N)=O)C3=C(C(=O)C(C)=C(N)C3=O)N1C[C@@H]1N[C@@H]12	0.425 ± 1.7
OCC(O)C1OCOC(C(O)CO)C1O (stereo unspecified)	-1.85
c1ccc(-c2nnc(-c3ccccn3)s2)nc1	1.2
Cc1ccc(N=Nc2c(O)ccc3n[nH]nc23)cc1	0.9
Clc1nc(Oc2ccccc2)nc(-c2cn(-c3ccccc3)c3ccccc23)n1	0.05

SMILES	T2 sensor activation Q score
Nc1n[nH]c(-c2ccccc2)n1	0.75
COc1ccc2nc3cc(Cl)ccc3c(C#N)c2c1	-0.2
N#C/C(=C\c1ccc[nH]1)C(=O)c1ccccc1	0.6
C=CCOc1ccnc(-c2ccccc2)n1	1.6
Oc1ccccc1-n1c(-c2ccccc2)ccc1-c1ccccc1	0.4
C(=C\c1ccccn1)/c1ccccn1	2.1
CC(=O)OCc1cc(-c2nc3ccccc3[nH]c2=O)nn1-c1ccc(Cl)cc1	-0.35
CC1CC(O)C2C3(C)CCCC2(COC3=O)C12CCC1(CCOC1=O)O2 (stereo unspecified)	0.55
c1ccc(-c2ccc(-c3nccc4ccccc34)[nH]2)cc1	-0.2
N#CC1C=Cc2c(ccc3ccccc23)N1C(=O)c1ccccc1 (stereo unspecified)	1.45
Cc1cc(=O)oc2cc(OS(C)(=O)=O)ccc12	1.2
Cc1ccc(C(C)C)cc1NC(=O)Nc1ccc([N+](=O)[O-])cc1	-0.3
COc1ccc(CN2CCOC2=O)cc1OC	0.95
ONC(=NCc1ccccc1)c1ccccc1	0.45
c1ccc(-c2ccc3c(c2)NCCN3)cc1	0.25
O=c1oc(-c2ccccc2)c(-c2ccccc2)c2ccccc12	1.4
CSc1cccc(NC(=O)Nc2nc3c(C)cccc3s2)c1	-0.85
O=C(Oc1ccccc1)c1cccc2cccc(C(=O)Oc3ccccc3)c12	1.05
O=C(NC1CCCCC1)c1cc2ccccc2cc1O	0.1
Nc1nc(N)c2cc(Sc3ccc4ccccc4c3)ccc2n1	-1.95
Clc1ccc(-c2c(C3=NCCCN3)nnn2-c2ccc(Cl)cc2)cc1	-0.9
CCOC(=O)c1c(NC(=S)NC)sc2c1CCCC2	1.7
COC1=C[C@@H](C)[C@@H]2C[C@H]3OC(O)C[C@H]4C(C)=C(OC)C(=O)[C@H]([C@@]2(C)C1=O)[C@@]34C (stereo partly specified)	-0.05
O=C(Nc1cccc(-c2nc3ccccc3[nH]2)c1)c1ccc(C(=O)Nc2cccc(-c3nc4ccccc4[nH]3)c2)cc1	3
c1ccc(-c2nnc3nc(N4CCCCC4)nc(N4CCCCC4)n23)cc1	1.35

SMILES	T2 sensor activation Q score
CCN(CC)CCN1c2ccccc2Sc2ccc3ccccc3c21	-0.8
Cc1cccc(N2CCN(CC(O)COc3ccc(Cl)cc3)CC2)c1 (stereo unspecified)	0.45
CCOC(=O)Cc1cc(=O)c2cc(C)ccc2[nH]1	0.8
CCc1noc2cc(-c3ccccc3)n(C)c(=O)c12	0.45
COC(=O)C1(F)C(=O)NC(=O)NC1OC (stereo unspecified)	-0.05
O=C(/C=C/c1ccc(Cl)s1)c1ccc(Cl)s1	1.15
Nc1nc(N)c(C=Nc2ccc(Br)cc2)c(Nc2ccc(Br)cc2)n1	0.25
CCCNC(=O)c1ccccc1C(=O)NC1(C(=O)NCCC)CCCC1	0
Cc1ccc(N=Nc2c(N)nn(-c3ccccc3)c2N)cc1	1.35
Cc1cccc(C(O)C(O)c2cccc(C)n2)n1 (stereo unspecified)	0.55
CC(=NO)C1CC(CC(=O)O)C1(C)C (stereo unspecified)	-0.25
O=C1C=CC(=O)N1c1ccc(I)cc1Cl	-0.45
c1ccc2c(c1)cnc1ccccc12	-1.75
CC[C@@]1(O)C(=O)OCc2c1cc1n(c2=O)Cc2cc3c(N)cccc3nc2-1	0.25
Nc1nc(N)c(N=Nc2ccc(C(=O)O)cc2)c(N)n1	0.9
NC1=NC(c2ccccc2)N=C(Nc2ccccc2)N1 (stereo unspecified)	0
CCOc1ccc(S(=O)(=O)c2ccc(C)cc2)c2c1no[n+]2[O-]	1.3
COc1cc([C@@H]2c3cc4c(cc3[C@@H](O[C@@H]3O[C@@H]5CO[C@@H](C)O[C@H]5[C@H](O)[C@H]3O)[C@H]3COC(=O)[C@H]23)OCO4)cc(OC)c1O	0
O=C(O)c1ccccc1-c1ccccc1C(=O)Nc1ccc2oc(=O)c3ccccc3c2c1	0.15
CN(C)c1nc(N(C)C)nc(N(C)C)n1	-0.6
CC1CN(CCN2CC(C)N(C=O)CC2C)C(C)CN1C=O (stereo unspecified)	0.15
O=c1nc(Nc2cccc(Cl)c2)oc2cc(Cl)oc(=O)c12	0.85
COC(=O)C1(C(=O)OC)C2C(=O)C3C(C21)C3(C(=O)OC(C)(C)C)C(=O)OC(C)(C)C (stereo unspecified)	-0.5
NS(=O)(=O)c1ccc(Nc2ccccc2)c([N+](=O)[O-])c1	1.25
CCOC(=O)Cn1nc2oc(=O)c(CCN3CCN(c4ccccc4OC)CC3)c(C)c2c1C	0.55

Taken from the results shown (three entries):
SMILES	T2 sensor activation Q score
CCCCC[C@H](O)/C=C/[C@@H]1[C@@H](C/C=C\CCCC(=O)O)[C@@H](O)C[C@H]1O	0.6
COc1cccc(NC(=S)Nc2ccc(O)cc2)c1	-1.2
Cc1ccn2c(C(C)O)nnc2c1 (stereo unspecified)	0.8

Continuation.

SMILES	T2 sensor activation Q score
S=c1[nH]c2ccccc2n2cccc12	1.1
NNC(=O)CNC(=O)Nc1n[nH]c(=S)s1	0.4
Nc1nc(=S)c2[nH]cnc2[nH]1	-1.4
Nc1nc(SCc2ccccn2)c2ncn(C3OC(CO)C(O)C3O)c2n1 (stereo unspecified)	-0.15
NC(=O)C1=C(N)c2ccccc2C1c1ccccc1 (stereo unspecified)	1.4
CCCCCOc1ccc(N2C(=O)C(C)CNC2=S)cc1 (stereo unspecified)	0.7
O=C1CSC(=S)N1/N=C/c1c[nH]c2ccc(Br)cc12	1.35
C=CCSC(CC)(CC)C(N)=O	1.75
CCOC(=O)N1CCc2cc(OC)c(OC)c3c2c1cc1cc(OC)c(OC)cc13	1.15
O=C(Nc1ccc(C2=NCCN2)cc1)c1ccc(C(=O)Nc2ccc(C3=NCCN3)cc2)c(Cl)c1	1.25
CCCCOC(=O)c1cccnc1	-1.25
Cn1cnc([N+](=O)[O-])c1Sc1nnc(-c2cccnc2)n1C	0.45
COc1ccccc1N=NNc1ccccc1OC	0.05
COc1cc2c(cc1OC)[N+]([O-])=C(c1ccccc1)C2=O	0
COC(=O)Cc1[nH]c(Cl)nc1C(N)=O	-0.5
CC1=C(C#N)C(C)(C)C(C#N)=C(C)N1	1.35
N#Cc1ccc(C(c2ccc(C#N)cc2)n2cncn2)cc1	-1.45
NC(=O)c1ccc2c(c1)S(=O)(=O)c1ccccc1C2=O	0.25
Cn1ncc2c(=O)[nH]c(N)nc21	1.45
COc1c2occc2cc2ccc(=O)oc12	0.2
CC(C)=C(c1ccc(Cl)cc1)c1c(N)ncnc1N	-0.4
